Here are results for one substance from article PMC3024417.

These are yes or no findings as the source states them, for the method shown. In cells and extracts the contact can be indirect. A result given as binding can be weak or reduced; the word gives no strength.

This assay has as its target T1, p120-catenin (human (endogenous in A431)) (UniProt O60716).
T1 sequence: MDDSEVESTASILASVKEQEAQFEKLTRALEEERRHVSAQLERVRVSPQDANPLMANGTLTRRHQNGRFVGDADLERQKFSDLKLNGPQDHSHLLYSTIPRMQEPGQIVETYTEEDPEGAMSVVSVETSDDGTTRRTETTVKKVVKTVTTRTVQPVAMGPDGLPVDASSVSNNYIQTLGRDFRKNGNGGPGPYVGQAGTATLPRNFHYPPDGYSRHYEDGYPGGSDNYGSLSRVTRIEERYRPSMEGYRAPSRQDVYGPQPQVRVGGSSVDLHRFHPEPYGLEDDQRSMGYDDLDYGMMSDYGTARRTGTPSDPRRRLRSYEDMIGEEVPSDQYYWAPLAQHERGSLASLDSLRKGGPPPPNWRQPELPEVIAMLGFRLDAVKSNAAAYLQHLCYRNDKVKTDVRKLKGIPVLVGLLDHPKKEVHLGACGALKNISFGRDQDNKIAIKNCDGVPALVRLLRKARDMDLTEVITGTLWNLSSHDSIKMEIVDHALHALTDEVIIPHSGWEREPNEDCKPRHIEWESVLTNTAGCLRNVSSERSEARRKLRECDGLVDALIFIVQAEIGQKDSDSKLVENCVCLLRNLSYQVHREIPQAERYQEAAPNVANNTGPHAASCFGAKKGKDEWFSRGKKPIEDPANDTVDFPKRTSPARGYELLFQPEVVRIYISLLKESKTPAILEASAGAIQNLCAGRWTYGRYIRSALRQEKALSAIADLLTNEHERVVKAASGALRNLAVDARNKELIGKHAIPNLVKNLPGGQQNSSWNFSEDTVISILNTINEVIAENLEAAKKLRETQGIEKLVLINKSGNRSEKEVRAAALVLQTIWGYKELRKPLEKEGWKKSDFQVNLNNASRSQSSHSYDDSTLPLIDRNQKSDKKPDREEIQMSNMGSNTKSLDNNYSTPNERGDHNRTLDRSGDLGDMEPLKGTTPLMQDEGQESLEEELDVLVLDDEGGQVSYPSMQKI
The experiment in a line: cross-linking + co-IP; ReCLIP: A431 cells crosslinked with 0.5 mM DSP, DTME or both, RIPA lysis; p120 captured on mAb 15D2 covalently bound to Protein G Dynabeads, 5 RIPA washes; partners eluted with 50 mM DTT (30 min, 37°C); Western blot of the eluate; control mAb 8D11 beads.

As to E-cadherin (human (endogenous in A431)), the binding entry is recorded as “binds”.
